{"source": "patent US20240252694A1", "about": "“CONJUGATES COMPRISING COVALENT BINDERS FOR TARGETING INTRACELLULAR KRAS G12C PROTEINS” (RayzeBio, Inc., priority 2021, published 2024)", "test_system": "human ERK1 dually phosphorylated at T202/Y204 and ERK2", "assay": "Phosphorylated ERK1/ERK2 ELISA", "format": "cell-based", "conditions": "phosphorylated ERK in cell lysates after treatment with compounds; sandwich ELISA; cell line not stated", "description": "An ERK phosphorylation ELISA kit was used to characterize compounds for KRAS-based cell activity. The sandwich ELISA (RnD Systems. Catalog #DYC1018B) measures human ERK1 that is dually phosphorylated at T202/Y204 and ERK2. Cell lysates from cells before and after treatment with compounds were prepared using kit manufacturer protocols.\nAll reagents were prepared following the kit's protocol. The wells of a 96-well microtiter plate were coated with 100 μL of 8.0 μg/mL of capture antibody in PBS. The plate was sealed and left to incubate overnight at ambient temperature. After incubation, the wells were washed with 400 μL of Wash Buffer for a total of 3 washes. Wells were then blocked by adding 300 μL of Block Buffer to each well and incubated at ambient temperature for 1-2 hours. After removal of the Block Buffer by aspirating and washing, 100 μL of standards and samples were added to the plate in duplicates and incubated for 2 hours at ambient temperature. The aspiration and wash steps were repeated to remove unbound standard and samples and 100 μL of 400 ng/mL detection antibody was applied to each well. […]\nThe optical density of each well was immediately analyzed at 450 nm with a wavelength correction at 540 nm. […] Concentrations of phosphorylated ERK in cell lysate samples were determined by extrapolation from the standard curve and then adjusted for any dilution factors.", "note": "For at least one compound, name, drawing or mass did not settle the structure.", "data": [{"smiles": "C=CC(=O)N1CCN(c2nc(OC[C@@H]3CCCN3CCCCNC(=O)CN3C[C@H](C)N(CC(=O)O)C[C@H](C)N(CC(=O)O)C[C@H](C)N(CC(=O)O)C[C@@H]3C)nc3c2CCN(c2cccc4cccc(Cl)c24)C3)C[C@@H]1CC#N", "note": "[CHL-004, 2-[(2S,5S,8S, 11S)-7,10-bis(carboxymethyl)-4-[2-[4-[(2S)-2-[[7-(8-chloro-1-naphthyl)-4-[(3 S)-3-(cyanomethyl)-4-prop-2-enoyl-piperazin-1-yl]-6,8-dihydro-5H-pyrido[3,4-d]pyrimidin-2-yl]oxymethyl]pyrrolidin-1-yl]butylamino]-2-oxo-ethyl]-2,5,8,11-tetramethyl-1.4,7,10-tetrazacyclododec-1-yl]acetic acid]", "values": [{"measurement": "IC50", "value": "1 to 10", "unit": "µM"}]}]}
